According to PMC12830989 (Nature Communications, 2025):

Key:
[1] = general procedure: Fmoc solid-phase peptide synthesis; Tentagel S RAM resin (loading 0.20-0.25 mmol/g); DIC/Oxyma (automated); HCTU/DiPEA (manual); conditions: conjugation step
[2] = general procedure: Fmoc solid-phase peptide synthesis; RAM-Tentagel S; DIC/Oxyma (automated); HCTU/DiPEA (manual); conditions: whole synthesis, scale 5 µmol

| Substance | conjugation yield [1] | isolated mass [2] | isolated yield [2] |
| --- | --- | --- | --- |
| Ac-Lys(Man)-Lys(Man)-Lys(Man)-Lys(Man)-Lys(Man)-Lys(Man)-TEG-Asp-Glu-Val-Ser-Gly-Leu-Glu-Gln-Leu-Glu-Ser-Ile-Ile-Asn-Phe-Glu-Lys-Leu-Ala-Ala-Ala-Ala-Ala-Lys(sCy5)-NH2 (DEVSGLEQLESIINFEKLAAAAAK; six Lys(Man), TEG, sulfo-Cy5, C-amide; printed: Asp-Glu-Val-Ser-Gly-Leu-Glu-Gln-Leu-Glu-Ser-Ile-Ile-Asn-Phe-Glu-Lys-Leu-Ala-Ala-Ala-Ala-Ala-Lys) | 85% |  |  |
| Ac-Lys(N3)-Gly-Lys(N3)-TEG-Asp-Glu-Val-Ser-Gly-Leu-Glu-Gln-Leu-Glu-Ser-Ile-Ile-Asn-Phe-Glu-Lys-Leu-Ala-Ala-Ala-Ala-Ala-Lys(sCy5)-NH2 |  | 1.24 mg | 6.6% |
| ys(N3)-TEG-Asp-Glu-Val-Ser-Gly-Leu-Glu-Gln-Leu-Glu-Ser-Ile-Ile-Asn-Phe-Glu-Lys-Leu-Ala-Ala-Ala-Ala-Ala-Lys(sCy5)-NH2 |  | 1.60 mg | 7.4% |
